Like-named read-outs stand apart in the source and are kept apart here. No constants are given. Whether binding was seen depends on the method and setting. In cells and extracts the contact can be indirect. Some entries that bind do so weakly or less than the wild type.
Experiments:
Test in all cases: co-IP
[1] = molecular target: GFP::Dicer-2^WT (Drosophila melanogaster) (UniProt A1ZAW0)
[2] = molecular target: GFP::Dicer-2^RNaseIII (Drosophila melanogaster) (UniProt A1ZAW0)
[3] = molecular target: GFP::Dicer-2^Hel1 (Drosophila melanogaster) (UniProt A1ZAW0)
[4] = molecular target: GFP::Dicer-2^WT (Drosophila melanogaster) (UniProt A1ZAW0); remark: listed apart in the source

Amino acid sequences for entries named in this document (tags omitted). A change or cut given only in a name is not applied to a line headed by its entry. Chains listed by the source or under a name are the forms on record and can include a tag or linker.
UniProt A1ZAW0: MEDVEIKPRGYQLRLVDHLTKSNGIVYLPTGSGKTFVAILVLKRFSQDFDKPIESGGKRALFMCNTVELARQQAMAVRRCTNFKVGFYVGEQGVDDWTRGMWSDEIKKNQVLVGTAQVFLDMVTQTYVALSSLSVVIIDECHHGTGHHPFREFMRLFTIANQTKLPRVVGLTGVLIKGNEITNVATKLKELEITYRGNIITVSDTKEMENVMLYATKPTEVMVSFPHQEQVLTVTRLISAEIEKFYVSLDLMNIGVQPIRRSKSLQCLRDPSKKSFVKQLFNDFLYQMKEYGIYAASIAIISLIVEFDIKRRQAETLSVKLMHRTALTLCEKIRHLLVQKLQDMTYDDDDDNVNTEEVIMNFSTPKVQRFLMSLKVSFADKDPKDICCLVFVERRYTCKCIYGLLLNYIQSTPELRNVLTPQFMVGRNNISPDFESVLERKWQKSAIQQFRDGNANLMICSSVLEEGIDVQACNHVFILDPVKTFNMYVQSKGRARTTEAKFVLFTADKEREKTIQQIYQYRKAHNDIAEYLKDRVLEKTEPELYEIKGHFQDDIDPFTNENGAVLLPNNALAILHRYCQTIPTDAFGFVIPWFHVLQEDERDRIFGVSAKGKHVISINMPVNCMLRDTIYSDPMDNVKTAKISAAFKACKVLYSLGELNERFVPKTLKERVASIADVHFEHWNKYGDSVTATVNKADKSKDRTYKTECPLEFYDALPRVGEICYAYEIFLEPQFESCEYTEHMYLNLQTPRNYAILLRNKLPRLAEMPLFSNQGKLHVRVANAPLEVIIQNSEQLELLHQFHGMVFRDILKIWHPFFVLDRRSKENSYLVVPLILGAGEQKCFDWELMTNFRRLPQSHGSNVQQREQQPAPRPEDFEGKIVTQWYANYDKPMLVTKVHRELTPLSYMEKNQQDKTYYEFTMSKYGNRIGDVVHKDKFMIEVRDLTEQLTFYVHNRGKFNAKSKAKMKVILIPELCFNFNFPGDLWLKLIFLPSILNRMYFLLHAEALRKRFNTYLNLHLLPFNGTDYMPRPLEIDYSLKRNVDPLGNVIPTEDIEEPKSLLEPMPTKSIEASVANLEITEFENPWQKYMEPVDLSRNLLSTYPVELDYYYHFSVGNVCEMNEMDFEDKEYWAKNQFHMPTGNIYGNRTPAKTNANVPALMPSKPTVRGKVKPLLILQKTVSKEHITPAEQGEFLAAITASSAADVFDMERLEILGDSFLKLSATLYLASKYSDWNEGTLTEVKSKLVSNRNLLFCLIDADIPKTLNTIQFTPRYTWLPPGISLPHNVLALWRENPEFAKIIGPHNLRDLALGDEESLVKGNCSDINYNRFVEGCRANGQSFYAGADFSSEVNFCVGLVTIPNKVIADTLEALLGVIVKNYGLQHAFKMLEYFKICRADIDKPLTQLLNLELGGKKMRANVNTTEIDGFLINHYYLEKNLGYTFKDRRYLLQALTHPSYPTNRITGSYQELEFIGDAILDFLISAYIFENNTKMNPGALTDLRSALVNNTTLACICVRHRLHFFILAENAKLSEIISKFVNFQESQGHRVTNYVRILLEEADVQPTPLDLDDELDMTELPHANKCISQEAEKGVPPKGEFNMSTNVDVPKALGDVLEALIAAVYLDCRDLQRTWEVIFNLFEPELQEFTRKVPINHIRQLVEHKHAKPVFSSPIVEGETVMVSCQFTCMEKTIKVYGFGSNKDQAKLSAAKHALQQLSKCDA
GFP::Dicer-2^RNaseIII (A1ZAW0, form named): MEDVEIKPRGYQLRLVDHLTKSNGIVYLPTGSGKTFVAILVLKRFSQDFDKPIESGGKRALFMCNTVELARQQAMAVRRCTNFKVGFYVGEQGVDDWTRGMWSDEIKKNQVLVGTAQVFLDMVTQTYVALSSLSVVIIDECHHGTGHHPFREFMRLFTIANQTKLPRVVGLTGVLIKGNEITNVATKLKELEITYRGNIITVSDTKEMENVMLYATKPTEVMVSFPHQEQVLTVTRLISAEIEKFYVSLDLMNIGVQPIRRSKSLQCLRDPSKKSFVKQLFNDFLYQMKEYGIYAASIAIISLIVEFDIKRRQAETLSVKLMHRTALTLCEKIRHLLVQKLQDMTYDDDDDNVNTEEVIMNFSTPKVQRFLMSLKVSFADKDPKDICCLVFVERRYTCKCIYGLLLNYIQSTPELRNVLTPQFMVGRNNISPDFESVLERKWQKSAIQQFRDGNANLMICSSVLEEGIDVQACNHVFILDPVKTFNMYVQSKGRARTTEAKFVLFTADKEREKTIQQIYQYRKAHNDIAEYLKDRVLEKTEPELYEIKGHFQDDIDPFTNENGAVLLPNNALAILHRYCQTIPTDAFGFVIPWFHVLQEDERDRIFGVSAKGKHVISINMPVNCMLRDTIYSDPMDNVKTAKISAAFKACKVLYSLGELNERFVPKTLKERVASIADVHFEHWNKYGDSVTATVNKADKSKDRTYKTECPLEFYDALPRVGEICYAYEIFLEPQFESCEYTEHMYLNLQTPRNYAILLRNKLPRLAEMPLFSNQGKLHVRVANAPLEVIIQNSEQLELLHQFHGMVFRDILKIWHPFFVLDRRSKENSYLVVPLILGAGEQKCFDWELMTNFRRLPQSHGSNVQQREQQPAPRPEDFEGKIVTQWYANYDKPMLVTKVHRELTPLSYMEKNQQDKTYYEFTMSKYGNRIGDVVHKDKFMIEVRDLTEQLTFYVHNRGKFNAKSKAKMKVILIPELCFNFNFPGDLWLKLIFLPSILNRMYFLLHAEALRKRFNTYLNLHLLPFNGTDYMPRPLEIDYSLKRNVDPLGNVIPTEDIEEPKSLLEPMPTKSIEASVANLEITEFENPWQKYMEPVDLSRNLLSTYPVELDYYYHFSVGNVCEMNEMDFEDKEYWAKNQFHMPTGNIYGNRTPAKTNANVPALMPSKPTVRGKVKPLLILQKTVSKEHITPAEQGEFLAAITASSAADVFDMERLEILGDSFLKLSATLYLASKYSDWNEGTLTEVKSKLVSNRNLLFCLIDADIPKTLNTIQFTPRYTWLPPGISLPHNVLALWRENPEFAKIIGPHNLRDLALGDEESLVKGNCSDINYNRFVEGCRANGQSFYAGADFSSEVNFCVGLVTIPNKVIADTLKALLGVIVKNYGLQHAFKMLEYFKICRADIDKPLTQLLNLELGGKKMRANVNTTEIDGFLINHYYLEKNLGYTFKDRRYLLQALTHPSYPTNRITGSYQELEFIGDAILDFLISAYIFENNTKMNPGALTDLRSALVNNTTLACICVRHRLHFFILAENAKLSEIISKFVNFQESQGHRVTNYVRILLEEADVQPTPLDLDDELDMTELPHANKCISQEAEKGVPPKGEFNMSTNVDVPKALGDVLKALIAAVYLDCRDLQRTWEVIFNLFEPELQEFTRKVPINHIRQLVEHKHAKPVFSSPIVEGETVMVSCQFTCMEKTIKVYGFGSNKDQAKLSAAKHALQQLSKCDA
GFP::Dicer-2^Hel1 (A1ZAW0, form named): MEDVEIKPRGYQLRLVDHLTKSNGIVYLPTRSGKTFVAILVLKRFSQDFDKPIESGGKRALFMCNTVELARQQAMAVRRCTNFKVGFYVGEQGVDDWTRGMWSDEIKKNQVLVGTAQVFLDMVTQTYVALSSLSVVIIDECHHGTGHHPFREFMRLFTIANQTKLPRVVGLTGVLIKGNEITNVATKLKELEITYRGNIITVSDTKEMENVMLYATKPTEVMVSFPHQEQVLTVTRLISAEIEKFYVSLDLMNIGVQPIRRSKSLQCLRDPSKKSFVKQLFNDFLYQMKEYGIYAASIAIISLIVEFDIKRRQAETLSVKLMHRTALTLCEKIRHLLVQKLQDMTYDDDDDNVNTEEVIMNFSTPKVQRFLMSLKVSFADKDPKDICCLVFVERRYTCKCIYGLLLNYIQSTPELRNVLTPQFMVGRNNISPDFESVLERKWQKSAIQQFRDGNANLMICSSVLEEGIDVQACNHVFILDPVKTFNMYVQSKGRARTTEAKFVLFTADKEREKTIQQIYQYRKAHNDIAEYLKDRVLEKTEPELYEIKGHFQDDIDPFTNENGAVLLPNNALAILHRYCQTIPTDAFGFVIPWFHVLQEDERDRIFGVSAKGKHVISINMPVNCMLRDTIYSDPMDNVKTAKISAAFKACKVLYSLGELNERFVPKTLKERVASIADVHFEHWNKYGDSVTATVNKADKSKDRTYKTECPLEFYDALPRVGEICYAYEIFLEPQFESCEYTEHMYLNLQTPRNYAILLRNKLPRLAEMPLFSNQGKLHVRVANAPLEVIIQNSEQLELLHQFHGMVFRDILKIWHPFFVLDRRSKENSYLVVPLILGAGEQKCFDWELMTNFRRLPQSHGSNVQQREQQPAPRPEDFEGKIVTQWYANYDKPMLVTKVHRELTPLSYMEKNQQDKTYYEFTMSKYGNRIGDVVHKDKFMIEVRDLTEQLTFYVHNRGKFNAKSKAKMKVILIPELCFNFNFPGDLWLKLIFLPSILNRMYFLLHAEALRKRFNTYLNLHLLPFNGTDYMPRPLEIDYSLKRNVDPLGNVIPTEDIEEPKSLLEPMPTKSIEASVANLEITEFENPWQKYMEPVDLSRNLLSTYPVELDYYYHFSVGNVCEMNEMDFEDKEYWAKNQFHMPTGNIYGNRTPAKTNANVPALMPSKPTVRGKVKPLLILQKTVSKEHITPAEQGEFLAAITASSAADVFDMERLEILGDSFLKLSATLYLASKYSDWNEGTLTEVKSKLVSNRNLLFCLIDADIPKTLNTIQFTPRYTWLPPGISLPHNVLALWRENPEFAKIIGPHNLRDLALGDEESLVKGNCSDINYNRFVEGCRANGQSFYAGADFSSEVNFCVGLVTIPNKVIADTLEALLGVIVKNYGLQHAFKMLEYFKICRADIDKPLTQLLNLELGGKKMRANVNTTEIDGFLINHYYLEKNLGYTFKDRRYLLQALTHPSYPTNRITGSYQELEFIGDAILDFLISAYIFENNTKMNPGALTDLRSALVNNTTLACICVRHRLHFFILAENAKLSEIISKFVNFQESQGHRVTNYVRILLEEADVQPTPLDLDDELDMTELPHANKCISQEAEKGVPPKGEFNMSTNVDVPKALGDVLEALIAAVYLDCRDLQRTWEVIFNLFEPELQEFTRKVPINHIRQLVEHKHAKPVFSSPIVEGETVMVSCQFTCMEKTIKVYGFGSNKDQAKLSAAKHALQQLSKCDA

Measured: binding

B1: Me31B (protein, UniProt P23128 1-459)
chain: MMTEKLNSGHTNLTSKGIINDLQIAGNTSDDMGWKSKLKLPPKDNRFKTTDVTDTRGNEFEEFCLKRELLMGIFEKGWERPSPIQEAAIPIALSGKDVLARAKNGTGKTGAYCIPVLEQIDPTKDYIQALVMVPTRELALQTSQICIELAKHLDIRVMVTTGGTILKDDILRIYQKVQLIIATPGRILDLMDKKVADMSHCRILVLDEADKLLSLDFQGMLDHVILKLPKDPQILLFSATFPLTVKNFMEKHLREPYEINLMEELTLKGVTQYYAFVQERQKVHCLNTLFSKLQINQSIIFCNSTQRVELLAKKITELGYCCYYIHAKMAQAHRNRVFHDFRQGLCRNLVCSDLFTRGIDVQAVNVVINFDFPRMAETYLHRIGRSGRFGHLGIAINLITYEDRFDLHRIEKELGTEIKPIPKVIDPALYVANVGASVGDTCNNSDLNNSANEEGNVSK
binds: all assays above

B2: eIF4E1 (protein, UniProt P48598 1-259)
chain: MQSDFHRMKNFANPKSMFKTSAPSTEQGRPEPPTSAAAPAEAKDVKPKEDPQETGEPAGNTATTTAPAGDDAVRTEHLYKHPLMNVWTLWYLENDRSKSWEDMQNEITSFDTVEDFWSLYNHIKPPSEIKLGSDYSLFKKNIRPMWEDAANKQGGRWVITLNKSSKTDLDNLWLDVLLCLIGEAFDHSDQICGAVINIRGKSNKISIWTADGNNEEAALEIGHKLRDALRLGRNNSLQYQLHKDTMVKQGSNVKSIYTL
binds: all assays above

Source: paper doi:10.1101/2023.12.21.570062
